Experimental data published in patent US10905764B2, “Hydrated food” (Taiyokagaku Co., Ltd., priority 2005, dated 2021).
Peptide text beside a SMILES is read from it.

Legend:
panelists [1] = experiment: Sensory evaluation: bitter taste of L-phenylalanine with addition of pyroglutamic acid and theanine (1:50); assay type: in vivo; conditions: for number of panelists who felt the bitter taste of L-phenylalanine: ten panelists
panelists [2] = experiment: Sensory evaluation: bitter taste of acesulfame K with addition of pyroglutamic acid and theanine (1:50); assay type: in vivo; conditions: for number of panelists who felt the bitter taste of acesulfame K: ten panelists
panelists [3] = experiment: Sensory evaluation: bitter taste of aspartame with addition of pyroglutamic acid and theanine (1:50); assay type: in vivo; conditions: for number of panelists who felt the bitter taste of aspartame: ten panelists
panelists [4] = experiment: Sensory evaluation: taste of glutamine with addition of pyroglutamic acid; assay type: in vivo; conditions: for number of panelists who felt the taste (pyroglutamic acid alone): ten panelists
panelists [5] = experiment: Sensory evaluation: taste of theanine with addition of pyroglutamic acid; assay type: in vivo; conditions: for number of panelists who felt the taste (pyroglutamic acid alone) / number of panelists who felt the taste of theanine: ten panelists
panelists [6] = experiment: Sensory evaluation: taste of glutamic acid with addition of pyroglutamic acid; assay type: in vivo; conditions: ten panelists
[7] = minimum concentration at which taste can be perceived; cited from earlier work

## N[C@@H](Cc1ccccc1)C(=O)O [L-phenylalanine]
Panelists [1]; L-phenylalanine 10, pyroglutamic acid/theanine 0 (mg/100 ml)
  number of panelists who felt the bitter taste of L-phenylalanine: 0
Panelists [1]; L-phenylalanine 10, pyroglutamic acid/theanine 1 (mg/100 ml)
  number of panelists who felt the bitter taste of L-phenylalanine: 0
Panelists [1]; L-phenylalanine 10, pyroglutamic acid/theanine 10 (mg/100 ml)
  number of panelists who felt the bitter taste of L-phenylalanine: 0
Panelists [1]; L-phenylalanine 10, pyroglutamic acid/theanine 50 (mg/100 ml)
  number of panelists who felt the bitter taste of L-phenylalanine: 0
Panelists [1]; L-phenylalanine 10, pyroglutamic acid/theanine 100 (mg/100 ml)
  number of panelists who felt the bitter taste of L-phenylalanine: 0
Panelists [1]; L-phenylalanine 30, pyroglutamic acid/theanine 1 (mg/100 ml)
  number of panelists who felt the bitter taste of L-phenylalanine: 1
Panelists [1]; L-phenylalanine 30, pyroglutamic acid/theanine 50 (mg/100 ml)
  number of panelists who felt the bitter taste of L-phenylalanine: 0
Panelists [1]; L-phenylalanine 30, pyroglutamic acid/theanine 100 (mg/100 ml)
  number of panelists who felt the bitter taste of L-phenylalanine: 0
Panelists [1]; L-phenylalanine 50, pyroglutamic acid/theanine 0 (mg/100 ml)
  number of panelists who felt the bitter taste of L-phenylalanine: 10
Panelists [1]; L-phenylalanine 50, pyroglutamic acid/theanine 1 (mg/100 ml)
  number of panelists who felt the bitter taste of L-phenylalanine: 3
Panelists [1]; L-phenylalanine 50, pyroglutamic acid/theanine 10 (mg/100 ml)
  number of panelists who felt the bitter taste of L-phenylalanine: 1
Panelists [1]; L-phenylalanine 50, pyroglutamic acid/theanine 50 (mg/100 ml)
  number of panelists who felt the bitter taste of L-phenylalanine: 0
Panelists [1]; L-phenylalanine 50, pyroglutamic acid/theanine 100 (mg/100 ml)
  number of panelists who felt the bitter taste of L-phenylalanine: 0
Panelists [1]; L-phenylalanine 100, pyroglutamic acid/theanine 0 (mg/100 ml)
  number of panelists who felt the bitter taste of L-phenylalanine: 10
Panelists [1]; L-phenylalanine 100, pyroglutamic acid/theanine 1 (mg/100 ml)
  number of panelists who felt the bitter taste of L-phenylalanine: 5
Panelists [1]; L-phenylalanine 100, pyroglutamic acid/theanine 10 (mg/100 ml)
  number of panelists who felt the bitter taste of L-phenylalanine: 3
Panelists [1]; L-phenylalanine 100, pyroglutamic acid/theanine 50 (mg/100 ml)
  number of panelists who felt the bitter taste of L-phenylalanine: 1
Panelists [1]; no mixture added
  threshold of L-phenylalanine: 30 mg/100 ml

## CC1=CC(=O)NS(=O)(=O)O1 [acesulfame K, acesulfame potassium]
Panelists [2]; acesulfame K 1, pyroglutamic acid/theanine 0 (mg/100 ml)
  number of panelists who felt the bitter taste of acesulfame K: 0
Panelists [2]; acesulfame K 1, pyroglutamic acid/theanine 1 (mg/100 ml)
  number of panelists who felt the bitter taste of acesulfame K: 0
Panelists [2]; acesulfame K 1, pyroglutamic acid/theanine 10 (mg/100 ml)
  number of panelists who felt the bitter taste of acesulfame K: 0
Panelists [2]; acesulfame K 1, pyroglutamic acid/theanine 50 (mg/100 ml)
  number of panelists who felt the bitter taste of acesulfame K: 0
Panelists [2]; acesulfame K 1, pyroglutamic acid/theanine 100 (mg/100 ml)
  number of panelists who felt the bitter taste of acesulfame K: 0
Panelists [2]; acesulfame K 3, pyroglutamic acid/theanine 1 (mg/100 ml)
  number of panelists who felt the bitter taste of acesulfame K: 3
Panelists [2]; acesulfame K 3, pyroglutamic acid/theanine 50 (mg/100 ml)
  number of panelists who felt the bitter taste of acesulfame K: 0
Panelists [2]; acesulfame K 3, pyroglutamic acid/theanine 100 (mg/100 ml)
  number of panelists who felt the bitter taste of acesulfame K: 0
Panelists [2]; acesulfame K 5, pyroglutamic acid/theanine 0 (mg/100 ml)
  number of panelists who felt the bitter taste of acesulfame K: 9
Panelists [2]; acesulfame K 5, pyroglutamic acid/theanine 1 (mg/100 ml)
  number of panelists who felt the bitter taste of acesulfame K: 4
Panelists [2]; acesulfame K 5, pyroglutamic acid/theanine 10 (mg/100 ml)
  number of panelists who felt the bitter taste of acesulfame K: 1
Panelists [2]; acesulfame K 5, pyroglutamic acid/theanine 50 (mg/100 ml)
  number of panelists who felt the bitter taste of acesulfame K: 0
Panelists [2]; acesulfame K 5, pyroglutamic acid/theanine 100 (mg/100 ml)
  number of panelists who felt the bitter taste of acesulfame K: 0
Panelists [2]; acesulfame K 10, pyroglutamic acid/theanine 0 (mg/100 ml)
  number of panelists who felt the bitter taste of acesulfame K: 10
Panelists [2]; acesulfame K 10, pyroglutamic acid/theanine 1 (mg/100 ml)
  number of panelists who felt the bitter taste of acesulfame K: 6
Panelists [2]; acesulfame K 10, pyroglutamic acid/theanine 10 (mg/100 ml)
  number of panelists who felt the bitter taste of acesulfame K: 2
Panelists [2]; acesulfame K 10, pyroglutamic acid/theanine 50 (mg/100 ml)
  number of panelists who felt the bitter taste of acesulfame K: 1
Panelists [2]; no mixture added
  threshold of acesulfame K: 3 mg/100 ml

## COC(=O)[C@H](Cc1ccccc1)NC(=O)[C@@H](N)CC(=O)O [aspartame] (H-Asp-Phe-OMe)
Panelists [3]; aspartame 1, pyroglutamic acid/theanine 0 (mg/100 ml)
  number of panelists who felt the bitter taste of aspartame: 0
Panelists [3]; aspartame 1, pyroglutamic acid/theanine 1 (mg/100 ml)
  number of panelists who felt the bitter taste of aspartame: 0
Panelists [3]; aspartame 1, pyroglutamic acid/theanine 10 (mg/100 ml)
  number of panelists who felt the bitter taste of aspartame: 0
Panelists [3]; aspartame 1, pyroglutamic acid/theanine 50 (mg/100 ml)
  number of panelists who felt the bitter taste of aspartame: 0
Panelists [3]; aspartame 1, pyroglutamic acid/theanine 100 (mg/100 ml)
  number of panelists who felt the bitter taste of aspartame: 0
Panelists [3]; aspartame 3, pyroglutamic acid/theanine 1 (mg/100 ml)
  number of panelists who felt the bitter taste of aspartame: 4
Panelists [3]; aspartame 3, pyroglutamic acid/theanine 50 (mg/100 ml)
  number of panelists who felt the bitter taste of aspartame: 0
Panelists [3]; aspartame 3, pyroglutamic acid/theanine 100 (mg/100 ml)
  number of panelists who felt the bitter taste of aspartame: 0
Panelists [3]; aspartame 5, pyroglutamic acid/theanine 0 (mg/100 ml)
  number of panelists who felt the bitter taste of aspartame: 10
Panelists [3]; aspartame 5, pyroglutamic acid/theanine 1 (mg/100 ml)
  number of panelists who felt the bitter taste of aspartame: 2
Panelists [3]; aspartame 5, pyroglutamic acid/theanine 10 (mg/100 ml)
  number of panelists who felt the bitter taste of aspartame: 1
Panelists [3]; aspartame 5, pyroglutamic acid/theanine 50 (mg/100 ml)
  number of panelists who felt the bitter taste of aspartame: 0
Panelists [3]; aspartame 5, pyroglutamic acid/theanine 100 (mg/100 ml)
  number of panelists who felt the bitter taste of aspartame: 0
Panelists [3]; aspartame 10, pyroglutamic acid/theanine 0 (mg/100 ml)
  number of panelists who felt the bitter taste of aspartame: 10
Panelists [3]; aspartame 10, pyroglutamic acid/theanine 1 (mg/100 ml)
  number of panelists who felt the bitter taste of aspartame: 4
Panelists [3]; aspartame 10, pyroglutamic acid/theanine 10 (mg/100 ml)
  number of panelists who felt the bitter taste of aspartame: 3
Panelists [3]; aspartame 10, pyroglutamic acid/theanine 50 (mg/100 ml)
  number of panelists who felt the bitter taste of aspartame: 1
Panelists [3]; no mixture added
  threshold of aspartame: 3 mg/100 ml

## NC(=O)CC[C@H](N)C(=O)O [glutamine, 2-aminoglutalamid acid]
Panelists [4]; no pyroglutamic acid
  threshold of glutamine: 250 mg/100 ml

## O=C1CCC(C(=O)O)N1 (centres unmarked) [pyroglutamic acid, 2-pyrrolidone-5-carboxylic acid]
Panelists [5]; theanine 0, pyroglutamic acid 1 (mg/100 ml)
  number of panelists who felt the taste (pyroglutamic acid alone): 0
Panelists [5]; theanine 0, pyroglutamic acid 10 (mg/100 ml)
  number of panelists who felt the taste (pyroglutamic acid alone): 0
Panelists [5]; theanine 0, pyroglutamic acid 50 (mg/100 ml)
  number of panelists who felt the taste (pyroglutamic acid alone): 0
Panelists [4]; glutamine 0, pyroglutamic acid 1 (mg/100 ml)
  number of panelists who felt the taste (pyroglutamic acid alone): 0
Panelists [4]; glutamine 0, pyroglutamic acid 10 (mg/100 ml)
  number of panelists who felt the taste (pyroglutamic acid alone): 0
Panelists [4]; glutamine 0, pyroglutamic acid 50 (mg/100 ml)
  number of panelists who felt the taste (pyroglutamic acid alone): 0
Panelists [6]; glutamic acid 0, pyroglutamic acid 1 (mg/100 ml)
  number of panelists who felt the taste (pyroglutamic acid alone): 0
Panelists [6]; glutamic acid 0, pyroglutamic acid 10 (mg/100 ml)
  number of panelists who felt the taste (pyroglutamic acid alone): 0
Panelists [6]; glutamic acid 0, pyroglutamic acid 50 (mg/100 ml)
  number of panelists who felt the taste (pyroglutamic acid alone): 0

## CCNC(=O)CC[C@H](N)C(=O)O [theanine, L-theanine]
Panelists [5]; no pyroglutamic acid
  threshold of theanine: 150 mg/100 ml
Panelists [5]; theanine 100, pyroglutamic acid 0 (mg/100 ml)
  number of panelists who felt the taste of theanine: 0
Panelists [5]; theanine 100, pyroglutamic acid 1 (mg/100 ml)
  number of panelists who felt the taste of theanine: 0
Panelists [5]; theanine 100, pyroglutamic acid 10 (mg/100 ml)
  number of panelists who felt the taste of theanine: 0
Panelists [5]; theanine 100, pyroglutamic acid 50 (mg/100 ml)
  number of panelists who felt the taste of theanine: 0
Panelists [5]; theanine 100, pyroglutamic acid 100 (mg/100 ml)
  number of panelists who felt the taste of theanine: 0
Panelists [5]; theanine 150, pyroglutamic acid 1 (mg/100 ml)
  number of panelists who felt the taste of theanine: 2
Panelists [5]; theanine 150, pyroglutamic acid 50 (mg/100 ml)
  number of panelists who felt the taste of theanine: 0
Panelists [5]; theanine 150, pyroglutamic acid 100 (mg/100 ml)
  number of panelists who felt the taste of theanine: 0
Panelists [5]; theanine 500, pyroglutamic acid 0 (mg/100 ml)
  number of panelists who felt the taste of theanine: 10
Panelists [5]; theanine 500, pyroglutamic acid 1 (mg/100 ml)
  number of panelists who felt the taste of theanine: 3
Panelists [5]; theanine 500, pyroglutamic acid 10 (mg/100 ml)
  number of panelists who felt the taste of theanine: 1
Panelists [5]; theanine 500, pyroglutamic acid 50 (mg/100 ml)
  number of panelists who felt the taste of theanine: 0
Panelists [5]; theanine 500, pyroglutamic acid 100 (mg/100 ml)
  number of panelists who felt the taste of theanine: 0
Panelists [5]; theanine 1000, pyroglutamic acid 0 (mg/100 ml)
  number of panelists who felt the taste of theanine: 10
Panelists [5]; theanine 1000, pyroglutamic acid 1 (mg/100 ml)
  number of panelists who felt the taste of theanine: 5
Panelists [5]; theanine 1000, pyroglutamic acid 10 (mg/100 ml)
  number of panelists who felt the taste of theanine: 3
Panelists [5]; theanine 1000, pyroglutamic acid 50 (mg/100 ml)
  number of panelists who felt the taste of theanine: 1
[7]
  taste threshold: 150 mg/100 ml
